## Results of single-concentration screens

Measurements from “University of Dundee, Small-Polar-MMV Screening Library” (2021), ChEMBL document CHEMBL3988442.

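Whole-parasite assay of Trypanosoma brucei over 72 hours; the read-out is not stated. Concentration: 30 µM. Higher reads as stronger inhibition (inferred: compounds with an IC50 in retests scored well above the rest). Values scatter widely below zero; nearly all retest evidence comes from the higher of the two concentrations used. Size under these conditions: about 64,000 compounds, about 940 of them at 50% or above in at least one test.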

Values are the deposited “Percent Effect”, in %. How 0% and 100% were set is not recorded. Most values in the screen are low, and negative values occur. The compounds are a random part of those screened.

structure	percent effect
OCCOc1ccc(NCc2cccc3[nH]ccc23)cn1	-151.4%
Cc1nnc2n1CCN(C(=O)c1cn(-c3ccc(F)cc3)nn1)C2	-11.04%
O=C1N(CCC2CCCCC2)CCCC1(O)CNCCc1ccccc1 (stereo unspecified)	-14.11%
[H][C@@]12CN(c3nnc(C)s3)C[C@H](C(=O)NCc3ccco3)[C@]1([H])CCO2	-23.23%
NC(=O)CCn1ccc(NC(=O)c2ccc(Br)o2)n1	-52.51%
O=C(Cc1ccsc1)N1CCCC(CNS(=O)(=O)Cc2ccccc2)C1 (stereo unspecified)	44.76%
O=C(O)C(F)(F)F.[H][C@@]12CN(CC3CCC3)C[C@]1([H])OCCN2c1cnccn1	-89.25%
CCCn1nc(-c2nc(Cc3ccc(OC)cc3)no2)ccc1=O	-2.266%
Cc1cc(C(=O)N(C)Cc2ccoc2)c(NC(=O)C(C)(C)C)s1	-34.96%
CCCS(=O)(=O)N1CCCC(c2cccc(C(=O)O)c2)C1 (stereo unspecified)	-43.81%
O=C(CN1CCCC1c1nc(-c2ccccc2)no1)N1CCOCC1 (stereo unspecified)	-22.7%
O=C(O)C(F)(F)F.O=C(O)C(F)(F)F.[H][C@@]12OCCN(C(=O)c3cncc(C)c3)[C@@]1([H])CC[C@H]2Oc1ccccn1	-18.34%
CN(CCn1nc2ccccn2c1=O)CC(=O)NC1CC1	5.96%
O=C(O)C(F)(F)F.O=C(O)C(F)(F)F.[H][C@@]12C[C@@H](C(=O)NC(C)C)C[C@@]1([H])N(Cc1ccccn1)CCO2	4.857%
CCN(CC1CCCO1)C(=O)Nc1cccc(Cl)c1OC (stereo unspecified)	-8.114%
CCN1CC2(CC1=O)CN(Cc1ccoc1)CCN(C(=O)C(C)C)C2 (stereo unspecified)	-12.11%
CC(C)C(=O)N1CCN(Cc2cc(-c3ccncc3)nn2C)CC1	-18.63%
Cc1nc(N2CCCC2)ncc1-c1cc(O)n2ncnc2n1	1.739%
CC(NCCN1CCN(C(=O)C2CCCC2)CC1)c1nccs1 (stereo unspecified)	-26.4%
CC(C)(NCc1cccc(O)c1)c1ccc2c(c1)OCO2	-8.616%
CN(C)[C@H]1CCCCN(C(=O)COCc2nc3cc(F)ccc3[nH]2)C1	-24.41%
CN(C1CCCC1)C(C)(C)C(=O)NCCNC(N)=O	11.34%
CN(C)CCN1CCOCC2(CCCN(C(=O)c3ccccc3)C2)C1.O=C(O)C(F)(F)F.O=C(O)C(F)(F)F (stereo unspecified)	-16.92%
O=C(Oc1ccccc1)N1CCC(CNS(=O)(=O)c2cccnc2)CC1	-25.9%
CN(CCc1nccs1)C(=O)C1(C#N)CCCCC1	-5.228%
Cn1cc(Br)c(=O)c(NS(=O)(=O)c2ccccc2F)c1	-14.97%
COCCN(C)CCN1CC2(CCN(C(=O)C3CCOC3)CC2)OC1=O (stereo unspecified)	-41.7%
CN1CC(C)(C)CN(C(=O)CCc2ccccc2)CC1=O	-36.7%
Cc1ccc(-c2nc(CN3CCOC(c4ccccc4)C3)cs2)o1 (stereo unspecified)	25.5%
CC1CN(S(=O)(=O)c2ccc(F)cc2)c2cccnc2O1 (stereo unspecified)	-27.51%
Cc1cc(NC(=O)CN2CCCC2Cn2nc(C)nc2C)n(C)n1 (stereo unspecified)	-5.786%
Oc1cc(-c2nccs2)nc(C2CCN(Cc3cccs3)CC2)n1	-16.93%
CN1CCOC(CNC(=O)CCCc2ccccc2)C1 (stereo unspecified)	-2.566%
CN1CCOCC2(CCN(Cc3ccc[nH]3)CC2)C1.O=C(O)C(F)(F)F.O=C(O)C(F)(F)F	-83.67%
Cc1ccc2cc(CNCCCN3CCOCC3)c(=O)[nH]c2c1	14.04%
Cc1cnn(CC2CN(Cc3ccccn3)CCO2)c1 (stereo unspecified)	-20.97%
CC(=O)NCC(=O)N1CCc2c(CNc3ncccn3)cncc2C1.Cl	-14.91%
COc1ccnc(N2CCC3(CCCN(C(C)C)C3=O)C2)n1 (stereo unspecified)	2.142%
OCc1ccc(CN2CCC(n3cc(-c4ccsc4)nn3)CC2)o1	-34.14%
CCn1cc(CN2CCC(CN3CCCCC3)CC2)cc1C#N	2.024%
O=C(O)C1CCCN1c1nc(-c2ccc(Cl)c(Cl)c2)cc(C(F)(F)F)n1 (stereo unspecified)	-7.275%
CN(Cc1ccccc1)CC1(O)CCCN(Cc2ccc(F)cc2)C1=O (stereo unspecified)	0.5467%
Cc1nsc(NC2CCOC3(CCCC3)C2)n1 (stereo unspecified)	-3.913%
CC(C)N1CC(n2ccnc2-c2nccn2C)CC1=O (stereo unspecified)	23.18%
Cc1nn(CCC(=O)NC(C(=O)O)c2c(C)n[nH]c2C)c(C)c1C (stereo unspecified)	-8.535%
Cc1nc(CN2CCc3cncnc3C2)oc1C	-79.04%
O=C(NCc1ccco1)C1CCCN1Cc1nc(-c2ccco2)no1 (stereo unspecified)	0.341%
O=C(Nc1nc[nH]n1)c1cc(-c2ccc(F)cc2)n[nH]1	-25.61%
O=C(O)C(F)(F)F.[H][C@@]12CN(C3CCOCC3)C[C@@]1([H])N(Cc1cccc(F)c1)C(=O)CO2	-25.74%
CCc1nc(C)c(C(=O)NCCNc2ncccn2)s1	4.741%
CC(=O)Cn1cc(C#N)c(=O)c2cc(Br)ccc21	-25.73%
O=c1c2cccnc2cnn1CC(O)c1cccc(C(F)(F)F)c1 (stereo unspecified)	-14.19%
Cc1noc(C)c1-c1nc(C2CCCN(C(=O)CN)C2)ccc1CO (stereo unspecified)	-2.068%
COCCc1nnc(NC(=O)CSCc2ccccc2)o1	13.75%
Cc1n[nH]c(C)c1CCC(=O)NCC1COc2ccccc2C1 (stereo unspecified)	-7.958%
CC(CO)(NC(=O)NCCc1ccc(Br)s1)C1CC1 (stereo unspecified)	-13.85%
Cc1cnn(C2CN(CCOc3cccc(C#N)c3)C2)c1	-142.3%
COCc1cc(O)nc(C2CCCN(Cc3ccc(F)cc3)C2)n1 (stereo unspecified)	-56.23%
CC(C)C1CN(S(=O)(=O)N2CCCC2)CCCN1Cc1ccc(F)cc1 (stereo unspecified)	-16.56%
COCCNC(=O)c1ccc(C)c(-n2cccc2)c1	-8.899%
COc1ccc(CN(C(=O)C(C)SC)c2cnn(C)c2)c(OC)c1 (stereo unspecified)	-36.13%
CNC(=O)c1cc(-c2ccccc2OC)[nH]n1	14.97%
CCCn1nccc1-c1cc(C2CCN(S(C)(=O)=O)CC2)nc(C)n1	-11.56%
Cc1c(C(=O)N2CCCC(C(=O)c3nccn3C)C2)c[nH]c(=O)c1C#N (stereo unspecified)	-33.92%
c1cc(NC2CC3(CCN(Cc4cc[nH]n4)C3)C2)ncn1 (stereo unspecified)	19.11%
CNc1nc(N2CCN(C3CCCCC3)C(CCO)C2)nc2c1CCC2 (stereo unspecified)	-4.932%
Cc1cccc(-c2noc(CN3CCCC3Cn3cccn3)n2)c1 (stereo unspecified)	4.261%
CCc1nnc2n1CCN(Cc1ccc(C(=O)N3CCCC3)cc1)C2	22.09%
CCn1ccnc1C1CCN(C(=O)C(O)c2ccc(Cl)cc2)CC1 (stereo unspecified)	-1.84%
Cc1nc(CN2CCN(CC3CCOC3)Cc3cccnc32)cs1.O=C(O)C(F)(F)F.O=C(O)C(F)(F)F.O=C(O)C(F)(F)F (stereo unspecified)	-32.16%
CCN(CC1CCCO1)C(=O)Nc1cccc(N2CCOCC2)c1 (stereo unspecified)	-29.57%
[H][C@]12CC[C@]([H])(CN(c3nc(C)c4ccc(S(C)(=O)=O)cc4n3)C1)N2	-42.89%
Cc1ccccc1C(CNc1ncnc2c1CCNC2)N(C)C (stereo unspecified)	-30.9%
Cc1ncc(CN2CCc3c(nc4cc(C5CC5)nn4c3O)C2)n1C	-3.511%
COCC(=O)N1CCN(c2ccc(C(=O)OC)cc2)CC1C (stereo unspecified)	-0.3938%
O=C(NCc1cccnc1-n1cncn1)C1CC2(CCNCC2)CN1 (stereo unspecified)	11.5%
CC(=O)N1CCC(c2cc(C(F)(F)F)n3ccnc3n2)CC1	-6.311%
CNC(=O)c1nc2c(s1)CCN(C(=O)c1cccc(OC)c1)CC2	-16.25%
O=C(CN1CCc2ccccc2C1)NCc1ccco1	-48.25%
COCC1c2c(cnn2CC2CC2)CCN1Cc1ccc(C)o1.O=C(O)C(F)(F)F.O=C(O)C(F)(F)F (stereo unspecified)	-1.349%
Cl.c1cc(OCc2ccc3c(c2)OCO3)ccc1CNC1CC1	-44.92%
Cc1ccc(-c2ccnc(N(C)CC3CCCO3)n2)c(C)n1 (stereo unspecified)	-14.72%
[H][C@@]12NC(=O)N[C@@H](c3ccc(OC)cc3)[C@]1([H])CCCO2	-17.53%
O=C(Nc1ccc2c(c1)OCO2)N1CCN(CCc2ccccc2)CC1	11.02%
CC(C)(O)CSCCNCc1ccc(Cl)c2cccnc12	-11.25%
O=C(N1CCCC1)N1Cc2nccn2CC(COc2cccnc2)C1.O=C(O)C(F)(F)F (stereo unspecified)	-5.824%

The last 9 entries again:

| structure | percent effect |
|---|---|
| `CNC(=O)c1nc2c(s1)CCN(C(=O)c1cccc(OC)c1)CC2` | -16.25% |
| `O=C(CN1CCc2ccccc2C1)NCc1ccco1` | -48.25% |
| `COCC1c2c(cnn2CC2CC2)CCN1Cc1ccc(C)o1.O=C(O)C(F)(F)F.O=C(O)C(F)(F)F` (stereo unspecified) | -1.349% |
| `Cl.c1cc(OCc2ccc3c(c2)OCO3)ccc1CNC1CC1` | -44.92% |
| `Cc1ccc(-c2ccnc(N(C)CC3CCCO3)n2)c(C)n1` (stereo unspecified) | -14.72% |
| `[H][C@@]12NC(=O)N[C@@H](c3ccc(OC)cc3)[C@]1([H])CCCO2` | -17.53% |
| `O=C(Nc1ccc2c(c1)OCO2)N1CCN(CCc2ccccc2)CC1` | 11.02% |
| `CC(C)(O)CSCCNCc1ccc(Cl)c2cccnc12` | -11.25% |
| `O=C(N1CCCC1)N1Cc2nccn2CC(COc2cccnc2)C1.O=C(O)C(F)(F)F` (stereo unspecified) | -5.824% |